Results are given in words; binding and its absence hold for the method and conditions named. Binding seen in cells or lysates may run through a third protein. Some results given as binding are weak or reduced against the parent protein; the word gives no strength.
Key:
[1] = molecular target: ISCU (iron-sulfur biogenesis / scaffolding protein) (human (endogenous in primary human PAECs)) (UniProt Q9H1K1); experiment: co-IP; PAEC lysate (cells treated with siGSTP1 or scrambled siRNA; also vehicle or BRD2889 in normoxia or hypoxia), immunoprecipitation with α-ISCU or IgG control, immunoblot for total ISCU, GSTP1 and glutathionylated ISCU
[2] = molecular target: glutathione S-transferase pi 1 (GSTP1) (human (endogenous in primary human PAECs)) (UniProt P09211); experiment: co-IP; PAEC lysate (cells treated with siGSTP1 or scrambled siRNA), immunoprecipitation with α-GSTP1 or IgG control, immunoblot for ISCU and GSTP1

Amino acid sequences for entries named in this document (tags omitted). Residues count along the entry.
UniProt Q9H1K1, residues 35-167: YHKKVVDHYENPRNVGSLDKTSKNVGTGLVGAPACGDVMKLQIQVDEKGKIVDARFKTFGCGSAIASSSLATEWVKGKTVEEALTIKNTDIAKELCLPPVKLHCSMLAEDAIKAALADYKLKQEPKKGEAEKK
UniProt P09211: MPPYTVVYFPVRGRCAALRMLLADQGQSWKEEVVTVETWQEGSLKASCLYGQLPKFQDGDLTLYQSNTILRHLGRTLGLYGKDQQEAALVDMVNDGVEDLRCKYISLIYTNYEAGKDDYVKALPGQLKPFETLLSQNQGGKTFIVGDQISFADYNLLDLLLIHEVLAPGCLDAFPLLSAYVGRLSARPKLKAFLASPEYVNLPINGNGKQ

| binding [1] | binding [2] | Substance |
| --- | --- | --- |
| binds |  | glutathione S-transferase pi 1 (GSTP1) (from UniProt P09211 1-210) (enzyme) |
|  | binds | ISCU (iron-sulfur biogenesis / scaffolding protein) (from UniProt Q9H1K1 35-167) |
